Assay results: publication PMC5996148
“And” between values parts separate entries of the source, which are not always exact repeats. Identical values can stand only once. Some of the results follow. For some assays here: Construct or isoform of the protein are uncertain.

Sequences of proteins named here, by UniProt entry; tags and fusion partners are left off. A change or cut given only in a name is not applied to a line headed by its entry.
UniProt P31941: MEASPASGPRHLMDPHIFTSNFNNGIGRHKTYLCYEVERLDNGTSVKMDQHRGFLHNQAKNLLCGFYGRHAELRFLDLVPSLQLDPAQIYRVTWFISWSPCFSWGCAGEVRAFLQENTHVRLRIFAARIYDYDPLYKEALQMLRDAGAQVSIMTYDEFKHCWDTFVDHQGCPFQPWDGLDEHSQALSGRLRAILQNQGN
UniProt P05067, whole entry: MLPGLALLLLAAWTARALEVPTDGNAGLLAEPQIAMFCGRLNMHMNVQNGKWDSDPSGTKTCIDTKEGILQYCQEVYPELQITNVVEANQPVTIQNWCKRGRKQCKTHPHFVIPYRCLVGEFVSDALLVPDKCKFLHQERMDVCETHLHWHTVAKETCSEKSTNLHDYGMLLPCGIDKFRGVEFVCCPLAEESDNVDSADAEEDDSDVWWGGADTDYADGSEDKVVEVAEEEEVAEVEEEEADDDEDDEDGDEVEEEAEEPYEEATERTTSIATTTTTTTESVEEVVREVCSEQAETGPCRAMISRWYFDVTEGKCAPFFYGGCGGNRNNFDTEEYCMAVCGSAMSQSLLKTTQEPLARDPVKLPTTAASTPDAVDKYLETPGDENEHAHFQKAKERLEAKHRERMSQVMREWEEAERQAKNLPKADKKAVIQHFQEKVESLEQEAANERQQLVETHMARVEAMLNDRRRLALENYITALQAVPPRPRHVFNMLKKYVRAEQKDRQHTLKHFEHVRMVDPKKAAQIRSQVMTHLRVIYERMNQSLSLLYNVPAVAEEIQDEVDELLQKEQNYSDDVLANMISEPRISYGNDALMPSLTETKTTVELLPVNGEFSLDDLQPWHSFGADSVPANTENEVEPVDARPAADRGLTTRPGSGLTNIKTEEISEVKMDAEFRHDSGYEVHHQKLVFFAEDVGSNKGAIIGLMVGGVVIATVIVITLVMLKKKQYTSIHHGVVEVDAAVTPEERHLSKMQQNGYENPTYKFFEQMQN

How the values were obtained:
Test in all cases: protein microarray (ProtoArray v5.0), streptavidin-Alexa Fluor 647
Conditions in all cases: 3'-biotin; 20 mM Tris (pH 7.5), 5 mM MgCl2, 100 mM KCl, 0.1% Tween-20, A/T-rich and random oligonucleotide blockers; temperature not stated; high values mean tight binding
AMDHD1 (human) = tested on: AMDHD1 (human)
AMELX (human) = tested on: AMELX (human)
ANKHD1 (human) = tested on: ANKHD1 (human)
ANKRD45 (human) = tested on: ANKRD45 (human)
ANKRD50 (human) = tested on: ANKRD50 (human)
ANPEP (human) = tested on: ANPEP (human)
ANXA6 (human) = tested on: ANXA6 (human)
ANXA7 (human) = tested on: ANXA7 (human)
ANXA9 (human) = tested on: ANXA9 (human)
APBA2BP (human) = tested on: APBA2BP (human)
APBB1IP = target: T1, APBB1IP (UniProt Q7Z5R6)
T1 sequence: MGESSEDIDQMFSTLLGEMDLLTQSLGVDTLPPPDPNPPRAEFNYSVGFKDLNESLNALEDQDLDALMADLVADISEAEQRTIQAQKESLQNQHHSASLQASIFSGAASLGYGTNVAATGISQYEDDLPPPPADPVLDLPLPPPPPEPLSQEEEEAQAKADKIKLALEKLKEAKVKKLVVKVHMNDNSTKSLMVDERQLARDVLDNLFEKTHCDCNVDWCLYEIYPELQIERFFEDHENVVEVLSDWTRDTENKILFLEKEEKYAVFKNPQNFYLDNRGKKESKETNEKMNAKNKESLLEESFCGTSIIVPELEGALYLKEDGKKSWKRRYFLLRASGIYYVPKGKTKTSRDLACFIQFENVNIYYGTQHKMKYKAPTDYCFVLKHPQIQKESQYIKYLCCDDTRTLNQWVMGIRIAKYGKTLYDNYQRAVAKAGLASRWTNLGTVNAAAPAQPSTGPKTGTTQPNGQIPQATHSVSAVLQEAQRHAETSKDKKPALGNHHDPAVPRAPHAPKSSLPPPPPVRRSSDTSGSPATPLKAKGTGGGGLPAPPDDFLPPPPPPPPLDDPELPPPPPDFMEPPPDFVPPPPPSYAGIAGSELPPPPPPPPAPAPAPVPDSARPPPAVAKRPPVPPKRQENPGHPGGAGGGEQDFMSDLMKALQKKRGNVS

APIP (human) = tested on: APIP (human)
APITD1 (human) = tested on: APITD1 (human)
APOA1 (human) = tested on: APOA1 (human)
APOA2 (human) = tested on: APOA2 (human)
APOBEC3A = APOBEC3A (UniProt P31941)
APOBEC3C = target: T2, APOBEC3C (UniProt Q9NRW3)
T2 sequence: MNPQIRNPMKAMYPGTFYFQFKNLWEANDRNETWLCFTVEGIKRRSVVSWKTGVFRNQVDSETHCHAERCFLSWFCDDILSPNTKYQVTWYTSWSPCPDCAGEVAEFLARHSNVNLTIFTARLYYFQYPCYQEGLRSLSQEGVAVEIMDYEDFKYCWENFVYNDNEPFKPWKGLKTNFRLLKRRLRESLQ

APOC2 (human) = tested on: APOC2 (human)
APOH (human) = tested on: APOH (human)
APP = APP (UniProt P05067)

GGTGACAGGGGTATGGGGAGGGG [G4-2 biotinylated (Ct1)]
binding signal (AMDHD1 (human)): -0.371 z-score | binding signal (AMELX (human)): -0.388 z-score | binding signal (ANKHD1 (human)): -0.393 z-score | binding signal (ANKRD45 (human)): -0.383 z-score | binding signal (ANKRD50 (human)): -0.383 z-score | binding signal (ANPEP (human)): -0.364 z-score | binding signal (ANXA6 (human)): -0.37 z-score | binding signal (ANXA7 (human)): -0.386 z-score | binding signal (ANXA9 (human)): -0.407 z-score | binding signal (APBA2BP (human)): -0.391 z-score | binding signal (APBB1IP): -0.389 z-score | binding signal (APIP (human)): -0.38 z-score and -0.378 z-score | binding signal (APITD1 (human)): -0.389 z-score | binding signal (APOA1 (human)): -0.404 z-score | binding signal (APOA2 (human)): -0.396 z-score | binding signal (APOBEC3A): -0.385 z-score | binding signal (APOBEC3C): 3.46 z-score | binding signal (APOC2 (human)): -0.378 z-score | binding signal (APOH (human)): -0.385 z-score | binding signal (APP): -0.37 z-score
